# Measured values taken from article PMC10945694.
# Sequences of proteins named here, by UniProt entry; tags and fusion partners are left off.
# UniProt Q6PDM2: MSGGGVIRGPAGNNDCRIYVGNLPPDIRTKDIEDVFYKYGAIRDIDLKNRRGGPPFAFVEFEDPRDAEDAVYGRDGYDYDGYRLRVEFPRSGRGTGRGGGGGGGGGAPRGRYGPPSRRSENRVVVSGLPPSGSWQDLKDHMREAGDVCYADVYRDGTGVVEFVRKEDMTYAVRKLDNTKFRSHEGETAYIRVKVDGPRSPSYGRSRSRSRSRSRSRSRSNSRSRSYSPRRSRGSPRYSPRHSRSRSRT
# UniProt Q9R0U0: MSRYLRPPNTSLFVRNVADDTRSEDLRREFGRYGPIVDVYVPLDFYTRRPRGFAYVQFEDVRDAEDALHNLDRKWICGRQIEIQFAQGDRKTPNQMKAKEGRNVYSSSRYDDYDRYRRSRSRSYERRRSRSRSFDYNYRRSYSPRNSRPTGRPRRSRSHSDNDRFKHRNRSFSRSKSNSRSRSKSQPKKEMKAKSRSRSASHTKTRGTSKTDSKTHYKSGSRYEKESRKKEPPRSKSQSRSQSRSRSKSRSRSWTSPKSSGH
# Results are given in words; binding and its absence hold for the method and conditions named. Binding seen in cells or lysates may run through a third protein. Some results given as binding are weak or reduced against the parent protein; the word gives no strength. Tags and fused reporters may be left off the sequences shown.
# Biological target: FLAG-SRSF1 (UniProt Q6PDM2)
# Experiment: co-IP; FLAG-SRSF1 or truncated SRSF1 together with HA-tagged SART1, RBM15 or SRSF10 in 293T cells; lysate, protein A agarose, western blotting
row,Molecule,binding
1,HA-SRSF10 (from UniProt Q9R0U0 1-262),binds
2,"HA-SART1 (protein, UniProt Q9Z315 1-806) MGSSKKHRGEKEAAGTTAAAGTGGTTEQPPRHREHKKHKHRSSGGGSSGGERRKRSRERGSERGSGRRGAEAEARSGAHGRERSQAEPSERRVKREKRDDGYEAAASSKASSGDASSLSIEETNKLRAKLGLKPLEVNAVKKEAGTKEEPVAADVINPMALRQREELREKLAAAKEKRLLNQKLGKIKTLGEDDPWLDDTAAWIERSRQLQKEKDLAEKRAKLLEEMDQEFGVSTLVEEEFEQRRQDLYSARDLQGLTVEHAIDSFREGETVVLTLKDKGVLQDGEDVLVNVNMVDKERADKNVELRKKKPDYLPYAEDESVDDLAQQKPRSILAKYDEELEGERPHSFRLEQGGMADGLRERELEEIRTKLRLQAQSLSSVGPRLASEYLSPEEMVTFKKTKRRVKKIRKKEKEVIMRADDLLPLGDQTQDGDFGSRLRGRGRRRVPEVEEEALEDEEKDPVAQPPPSDDTRVENMDISDEEDGGALPPGSPEGLEEDEAELELQKQLEKGRRLRQLQQLQQLRDSGEKVLEIVKKLESRQRGWEEEEDPERKGTIVFNATSEFCRTLGEIPTYGLAGNREEQEELMDFERDEERSANGGSESDGEENIGWSTVNLDEEKQHQDFSASSTTILDEEPIVNRGLAAALLLCQNKGLLETTVQKVARVKAPNKSLPSAVYCIEDKMAIDDKYSRREEYRGFTQDFKEKDGYKPDVKIEYVDETGRKLTPKEAFRQLSHRFHGKGSGKMKTERRMKKLDEEALLKKMSSSDTPLGTVALLQEKQKAQKTPYIVLSGSGKSMNANTITK",binds
3,"HA-RBM15 (protein, UniProt Q0VBL3 1-962) MRSAGREPLPRRSPRWRRASPLCETSAGWRVSQLRRDDLRRPSTMKGKERSPVKPKRSRGGEDSSSRGERSKKLGGSGGSNGSSSGKTDSGGSRRSLHLDKSSSRGGSREYETGGGSSSSRLHSYSSPSTKNSSGGGESRSSSRGGGGESRSSGAASSAPGGGDGVEYKTLKISELGSQLSDEAVEDGLFHEFKRFGDVSVKISHLSGSGSGDERVAFVNFRRPEDARAAKHARGRLVLYDRPLKIEAVYVSRRRSRSPLDKDAYAPSSSVVGTSVGSHRHAPGGGGGQRSLSPGGAALGYRDYRLQQLALGRLPPPPPPPLPRELERERDYPFYDRVRPAYSLEPRVGAGAGAAPFREVDEISPEDDQRANRTLFLGNLDITVTENDLRRAFDRFGVITEVDIKRPSRGQTSTYGFLKFENLDMSHRAKLAMSGKIIIRNPIKIGYGKATPTTRLWVGGLGPWVPLAALAREFDRFGTIRTIDYRKGDSWAYIQYESLDAAHAAWTHMRGFPLGGPDRRLRVDFADTEHRYQQQYLQPLPLTHYELVTDTFGHRAPDPLRSARDRTPPLLYRDRDRDLYTDSDWVPPPPPVRERSARAATSAVTAYEPLDSLDRRRDGWSLDRDRGDRDLPSSRDQPRKRRLPEESGGRHLDRSPESERPRKQRHCTPSPDRSPELSSNRDRYNSDNDRSSRLLLLERSSPVRDRRGSLEKSQSDKRDRKNSASAERDRKHRTAAPTEGKNPLKKEDRSDGNAPSASTSSSKQKPPSQKQDGGTAPVAASSPKLCLAWQGMLLLKNSNFPSNMHLLQGDLQVASSLLVEGSTGGKVAQLKITQRLRLDQPKLDEVTRRIKVAGPNGYAILLAVPGSSDSRSSSSSATSDTAASTQRPLRNLVSYLKQKQAAGVISLPVGGNKDKENTGVLHAFPPCEFSQQFLDSPAKALAKSEEDYLVMIIVRAKLVNSG",binds
